No constants are given. Whether binding was seen depends on the method and setting. In cells and extracts the contact can be indirect. Some results given as binding are weak or reduced against the parent protein; the word gives no strength.
Experiments:
[1] = target: ROCK1 (endogenous) (human (endogenous in 293FT, H460 and A549)) (UniProt Q13464); experiment: proximity ligation; Duolink PLA in situ (distances < 40 nm) with anti-CLU and anti-ROCK1 antibodies in H460 and A549 cells
[2] = target: HA-tagged ROCK1 (human) (UniProt Q13464); experiment: co-IP; co-IP of ROCK1 and ERK1/2 in the absence and presence of CLU; cells and tags not stated for this panel
[3] = target: HA-tagged ROCK1 (human) (UniProt Q13464); experiment: co-IP; 293FT cells transiently overexpressing Flag-tagged CLU and HA-tagged ROCK1; Flag magnetic beads and HA affinity agarose beads; Western blotting

Amino acid sequences for entries named in this document (tags omitted). A change or cut given only in a name is not applied to a line headed by its entry. Residues count along the entry.
UniProt Q13464: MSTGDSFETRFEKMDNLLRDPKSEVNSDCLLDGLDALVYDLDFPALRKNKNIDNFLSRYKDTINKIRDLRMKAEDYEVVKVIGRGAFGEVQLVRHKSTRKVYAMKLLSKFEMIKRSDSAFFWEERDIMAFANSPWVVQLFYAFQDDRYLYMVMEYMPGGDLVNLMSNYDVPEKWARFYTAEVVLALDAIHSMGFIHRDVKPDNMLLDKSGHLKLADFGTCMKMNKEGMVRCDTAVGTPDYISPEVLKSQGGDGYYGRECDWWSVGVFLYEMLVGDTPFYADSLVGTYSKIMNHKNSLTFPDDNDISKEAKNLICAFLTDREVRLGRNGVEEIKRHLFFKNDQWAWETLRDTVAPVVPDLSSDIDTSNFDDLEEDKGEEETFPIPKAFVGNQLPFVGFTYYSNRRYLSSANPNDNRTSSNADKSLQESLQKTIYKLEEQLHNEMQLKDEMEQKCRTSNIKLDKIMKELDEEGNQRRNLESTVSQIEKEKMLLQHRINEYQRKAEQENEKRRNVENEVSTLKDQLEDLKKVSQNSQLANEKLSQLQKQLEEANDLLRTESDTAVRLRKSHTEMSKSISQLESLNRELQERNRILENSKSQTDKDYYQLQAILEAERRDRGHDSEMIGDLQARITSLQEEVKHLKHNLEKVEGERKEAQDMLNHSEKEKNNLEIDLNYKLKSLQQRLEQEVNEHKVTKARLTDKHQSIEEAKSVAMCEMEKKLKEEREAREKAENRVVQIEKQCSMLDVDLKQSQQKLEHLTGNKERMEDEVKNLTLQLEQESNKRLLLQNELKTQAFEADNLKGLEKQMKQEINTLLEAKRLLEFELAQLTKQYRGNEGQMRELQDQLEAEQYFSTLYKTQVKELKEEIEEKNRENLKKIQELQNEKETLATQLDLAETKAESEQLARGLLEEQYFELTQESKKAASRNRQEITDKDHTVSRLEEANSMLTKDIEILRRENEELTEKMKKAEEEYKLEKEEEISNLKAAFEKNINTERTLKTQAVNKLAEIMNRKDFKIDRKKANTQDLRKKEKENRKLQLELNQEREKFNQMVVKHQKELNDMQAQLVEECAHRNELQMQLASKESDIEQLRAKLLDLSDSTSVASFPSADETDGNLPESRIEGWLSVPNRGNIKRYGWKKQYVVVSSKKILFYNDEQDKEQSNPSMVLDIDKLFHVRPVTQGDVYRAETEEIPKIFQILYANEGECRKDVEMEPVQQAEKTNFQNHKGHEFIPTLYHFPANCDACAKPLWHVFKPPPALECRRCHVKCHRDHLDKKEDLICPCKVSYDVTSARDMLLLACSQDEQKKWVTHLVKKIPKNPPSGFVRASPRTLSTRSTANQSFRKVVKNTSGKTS
UniProt P10909, residues 23-449: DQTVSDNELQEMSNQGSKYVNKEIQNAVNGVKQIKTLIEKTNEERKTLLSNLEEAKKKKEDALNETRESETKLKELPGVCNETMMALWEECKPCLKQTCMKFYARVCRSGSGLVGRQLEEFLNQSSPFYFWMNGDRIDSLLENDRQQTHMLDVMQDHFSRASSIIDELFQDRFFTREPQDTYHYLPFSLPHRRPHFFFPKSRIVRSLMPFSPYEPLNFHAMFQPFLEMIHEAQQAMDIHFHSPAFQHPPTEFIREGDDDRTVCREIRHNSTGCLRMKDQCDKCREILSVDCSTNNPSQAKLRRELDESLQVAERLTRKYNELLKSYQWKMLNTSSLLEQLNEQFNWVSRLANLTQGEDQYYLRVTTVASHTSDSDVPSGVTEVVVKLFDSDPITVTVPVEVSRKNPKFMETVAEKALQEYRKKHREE
UniProt P27361: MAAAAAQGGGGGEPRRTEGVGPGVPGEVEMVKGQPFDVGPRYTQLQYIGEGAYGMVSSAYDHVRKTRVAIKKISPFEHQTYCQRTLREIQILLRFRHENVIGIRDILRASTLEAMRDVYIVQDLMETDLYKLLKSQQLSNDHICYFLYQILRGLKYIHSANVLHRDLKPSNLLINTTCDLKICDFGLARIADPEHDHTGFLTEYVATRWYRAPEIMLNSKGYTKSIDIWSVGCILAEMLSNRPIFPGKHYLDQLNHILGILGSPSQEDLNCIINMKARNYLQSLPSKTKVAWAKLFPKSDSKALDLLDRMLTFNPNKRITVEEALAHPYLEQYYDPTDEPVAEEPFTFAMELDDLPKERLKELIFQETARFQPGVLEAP
UniProt P28482: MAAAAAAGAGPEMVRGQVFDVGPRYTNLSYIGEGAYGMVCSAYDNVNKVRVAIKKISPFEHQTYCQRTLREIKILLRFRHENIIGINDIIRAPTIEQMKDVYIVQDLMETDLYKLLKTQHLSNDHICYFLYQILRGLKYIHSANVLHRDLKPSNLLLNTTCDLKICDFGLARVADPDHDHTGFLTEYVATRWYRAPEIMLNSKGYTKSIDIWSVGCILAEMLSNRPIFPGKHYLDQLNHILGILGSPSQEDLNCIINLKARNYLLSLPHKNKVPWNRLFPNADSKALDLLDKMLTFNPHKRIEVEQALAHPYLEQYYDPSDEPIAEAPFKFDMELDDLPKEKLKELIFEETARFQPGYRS

## Clusterin (CLU), endogenous in lung cancer cells (from UniProt P10909 23-449)
[1]
  binding: binds

## ERK1 (of ERK1/2) (from UniProt P27361 1-379)
[2]
  binding: binds

## ERK2 (of ERK1/2) (from UniProt P28482 1-360)
[2]
  binding: binds

## Flag-tagged precursor Clusterin (cytoplasmic precursor CLU, psCLU) (from UniProt P10909 23-449)
[3]
  binding: binds

## secretory Clusterin (sCLU) from Flag-tagged CLU (from UniProt P10909-1 23-227; P10909-1 228-449) (complex)
[3]
  binding: no binding

From publication PMC9140019
